# According to PubChem BioAssay AID504467 (National Center for Advancing Translational Sciences (NCATS), 2011):
# Screen size: about 330,000 compounds; about 7,700 (2.3%) were called active. Inconclusive means that the source gave no clear call. Such entries were picked first, then a sample of the others. The call rests on the fitted dose curve; in most records, active means well fitted inhibition curve with a large enough effect; inconclusive means small, poorly fitted or top-dose-only effect, or effect the other way; inactive means flat fitted curve, though single readings scatter. Potencies of inconclusive entries are doubtful fits and often do not repeat.
# Experiment: qHTS screen for small molecules that inhibit ELG1-dependent DNA repair in human embryonic kidney (HEK293T) cells expressing luciferase-tagged ELG1; further: nearly all actives have a fitted effect of over 55% in size
# Conditions: HEK293T ELG1-luciferase reporter, luminescence, 16 h, DNA damage induced by 5-fluorouridine; activity change, negative = inhibition: at 46.1 µM (top of the series)
# Procedure, shortened: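 HEK293T cells expressing luciferase-tagged ELG1 (2,000/well) received 5-Fluorouridine plus compound or DMSO for 16 hr at 37 °C. Luciferase was read by ONE-Glo luminescence after 30 min at room temperature.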
# On the % scale 0 is the no-effect control and ±100 the full control effect; potency means the concentration at half of the fitted maximal effect.
Structure (SMILES),Potency,"activity change, negative = inhibition"
COc1ccc(CNC(=O)CCSc2ccc(F)cc2)cc1OC,"inconclusive: 23.1 µM [inhibitor, partial curve]",–
Cc1oc(/C=N/NS(=O)(=O)c2ccccc2)cc1Br,"inconclusive: 20.6 µM [activator, single point]",–
Cc1cc(C)cc(NC(=S)/C(=C(\[O-])c2ccc(Cl)cc2Cl)[n+]2ccccc2)c1,–,inactive: -13.6%
CCC[N+]1(CC#CCC(c2ccccc2)c2ccccc2)CCCCC1,active: 2.31 µM,–
CCOc1cc(CNCc2ccccn2)ccc1OCC(=O)NC(C)(C)C,"inconclusive: 23.1 µM [inhibitor, partial curve, poor fit]",–
Fc1cccc(CSc2nc3ccncc3[nH]2)c1,"inconclusive: 18.4 µM [activator, partial curve]",–
CCCCCC(=O)Nc1cccc(C2=NOC3(C2)C[C@H](C(N)=O)N(C(=O)COc2ccc(Cl)cc2)C3)c1 (stereo partly drawn),active: 7.3 µM,–
Cc1ccc(S(=O)(=O)C2(S(=O)(=O)c3ccc(C)cc3)CC2)cc1,active: 23.1 µM,–
CCc1ccc(NCc2nc(-c3ccccc3)no2)cc1,"inconclusive: 16.4 µM [activator, single point]",–
Cc1cccc(N=C2NC(=O)/C(=C/c3cccn3C)S2)c1C,"inconclusive: 29.1 µM [inhibitor, single point]",–
CCOc1ccccc1OCCCOc1ccc(C)cc1Br,"inconclusive: 18.4 µM [activator, single point]",–
COc1ccc(-c2nnc(SC(C)C(=O)Nc3nccs3)n2-c2ccccc2)cc1OC (stereo not drawn),"inconclusive: 11.6 µM [inhibitor, partial curve, poor fit]",–
O=C(Nc1nnc(-c2ccco2)o1)c1cccc(N2C(=O)CCC2=O)c1,"inconclusive: 25.9 µM [activator, single point]",–
O=C(COC(=O)c1cc(S(=O)(=O)N2CCOCC2)ccc1Cl)NCc1ccco1,"inconclusive: 18.3 µM [activator, partial curve, poor fit]",–
O=C(COC(=O)c1ccc(OC(F)F)cc1)Nc1cccc(S(=O)(=O)NC2=NCCC2)c1,–,inactive: -7.87%
N#C/C(=C\c1ccccc1)c1ccccn1,"inconclusive: 29.1 µM [activator, single point]",–
CCCCc1ccc(Nc2nc(CCC)cc(=O)[nH]2)cc1,"inconclusive: 0.184 µM [inhibitor, full curve, poor fit]",–
CC(C)(C)c1ccc(C(=O)NNc2ccc(F)cc2F)cc1,"inconclusive: 2.06 µM [inhibitor, full curve, poor fit]",–
O=C1/C(=C/c2ccc([N+](=O)[O-])cc2)C=C(c2ccccc2)N1c1ccccc1,–,inactive: 0.108%
COc1cc(/C=N/NC(=O)c2cc(C)n(-c3ccc(F)cc3)c2C)cc(OC)c1O,"inconclusive: 25.9 µM [inhibitor, partial curve, poor fit]",–
Cc1cccc(Cc2c(C)nc3nc(SCC(=O)O)nn3c2C)c1,–,inactive: 6%
CC(C)(C)NC(=O)C(c1ccco1)N(C(=O)Cn1nnc(-c2ccc(F)cc2)n1)c1ccccc1F (stereo not drawn),"inconclusive: 23.1 µM [inhibitor, single point]",–
O=C(Nc1ccc(S(=O)(=O)N2CCCCC2)cc1)c1ccc(F)cc1,"inconclusive: 25.9 µM [inhibitor, single point]",–

Structure (SMILES),Potency,"activity change, negative = inhibition"
O=c1oc2cc(OCc3ccc(F)cc3F)ccc2cc1-c1ccccn1,"inconclusive: 25.9 µM [activator, partial curve]",–
Cc1ccc(CN2CCSc3ccc(C(=O)NC4CCCC4)cc32)cc1,"inconclusive: 29.1 µM [inhibitor, single point]",–
O=C(Nc1ccc(Cl)c(S(=O)(=O)N2CCOCC2)c1)c1ccc2c(c1)OCCO2,active: 23.1 µM,–
O=C(CN1CCN(C/C=C/c2ccccc2)CC1)Nc1ccc(F)cc1F,"inconclusive: 23.1 µM [inhibitor, partial curve, poor fit]",–
CC(C)Cn1c(N)c(C(=O)COC(=O)Cc2cccs2)c(=O)n(C)c1=O,–,inactive: -8.77%
CC(=O)c1cccc(S(=O)(=O)Nc2ccc(N3CCOCC3)cc2)c1,"inconclusive: 23.1 µM [inhibitor, partial curve, poor fit]",–
O=C(Nc1ccc(N2CCOCC2)cc1N1CCOCC1)c1ncoc1-c1cccc(F)c1,"inconclusive: 25.9 µM [inhibitor, partial curve]",–
Cc1cccc(C)c1NCC(=O)N1CCN(Cc2ccccc2)CC1,–,inactive: -17.1%
CCOC(=O)c1cnc(-n2nc(C)cc2C)nc1N1CCOCC1,–,inactive: -1.56%
Cc1cccc(OCC(=O)Nc2ccc3c(c2)OCO3)c1C,–,inactive: 1.42%
CCC1(c2ccc(F)cc2)NC(=O)N(CC(=O)Nc2cc(S(=O)(=O)N(C)C)ccc2Cl)C1=O (stereo not drawn),"inconclusive: 23.1 µM [inhibitor, partial curve, poor fit]",–
CCOc1ccccc1NC(=S)N1CCN(c2ccc(OC)cc2)CC1,–,inactive: -0.648%
O=C(O)CSc1cc(NS(=O)(=O)c2ccc(Br)cc2)c2ccccc2c1O,active: 14.6 µM,–
Cc1ccc(C)c(-c2cc(C(=O)NCc3cccs3)c3ccccc3n2)c1,"inconclusive: 32.6 µM [inhibitor, single point]",–
CCCCCCSc1nsc(NC(=O)CC(C)C)n1,"inconclusive: 25.9 µM [activator, partial curve]",–
COc1ccc(OCC(=O)OCC(=O)c2ccc(OC)c(F)c2)cc1,"inconclusive: 20.6 µM [activator, single point]",–
CN1C(=O)c2ccc(N3CCCC3)cc2C1=O,"inconclusive: 7.31 µM [activator, partial curve]",–
Cc1ccc(SCc2c(-c3ccccc3)nn(C)c2Cl)cc1,–,inactive: -12.8%
O=C(CCN1CCN(c2ccccc2)CC1)Nc1cccc(Br)c1,"inconclusive: 23.1 µM [inhibitor, single point]",–
CN(C)CCCN(C(=O)c1cc(Cl)sc1Cl)c1nc2cc3c(cc2s1)OCO3,"inconclusive: 23.1 µM [activator, single point]",–
CCCOC(=O)CSC1=C(C#N)C(c2ccccc2OCC)C(C#N)C(=O)N1 (stereo not drawn),–,inactive: 20.2%
CC1(NC(=O)Nc2ccccc2)CCS(=O)(=O)C1 (stereo not drawn),"inconclusive: 29.1 µM [activator, single point]",–
CCn1c(SCC(=O)Nc2oc(-c3ccccc3)c(-c3ccccc3)c2C#N)nnc1-c1ccco1,–,inactive: -0.687%

Structure (SMILES),Potency,"activity change, negative = inhibition"
CCCc1nc2n[nH]c(N)c2c2c1CCC2,"inconclusive: 18.4 µM [activator, partial curve, poor fit]",–
CCOC(=O)c1ccccc1NC(=O)COC(=O)CCC(=O)c1ccc(C)cc1,–,inactive: 28.9%
CCOC(=O)c1sc(NC(=O)CSc2n[nH]c(-c3ccc(Cl)cc3Cl)n2)c(C#N)c1C,"inconclusive: 6.31 µM [activator, full curve, poor fit]",–
Cc1noc(C)c1COc1ccc(C(=O)OCC(=O)N2c3ccccc3NC(=O)C2(C)C)cc1,"inconclusive: 18.4 µM [inhibitor, single point]",–
CCN(CC(=O)Nc1ccc(NC(C)=O)cc1)C(=O)c1sc2nc3n(c(=O)c2c1C)CCC3,"inconclusive: 3.98 µM [inhibitor, single point]",–
CCOC(=O)N1CCN(S(=O)(=O)c2cc(OCC(=O)NC3CCCCC3)c(C)cc2Cl)CC1,active: 18.4 µM,–
CCOC(=O)N1CCN(C(=O)CN(Cc2ccccc2)S(=O)(=O)c2ccc(OC)c(Cl)c2)CC1,"inconclusive: 23.1 µM [inhibitor, single point]",–
Cc1ccc(N(O)C(=O)NCCCCNC(=O)N(O)c2ccc(C)cc2)cc1,–,inconclusive: 109% [activator]
COc1ccc(-n2c(C)nc3cc(C(=O)N4CCOCC4)ccc32)cc1,"inconclusive: 0.0103 µM [activator, full curve, poor fit]",–
Cc1cccc(NC(=O)c2cc(Cl)ccc2[N+](=O)[O-])c1,–,inactive: -4.46%
COc1ccc(NC(=O)c2noc(C(C)C)c2[N+](=O)[O-])cc1,"inconclusive: 13 µM [activator, partial curve]",–
O=[N+]([O-])c1cnccc1Nc1ccccc1,"inconclusive: 11.6 µM [inhibitor, partial curve]",–
COc1ccc(C2/C=C\CN(C(=O)c3ccccc3)CC(=O)N2Cc2cccc(F)c2)cc1 (stereo not drawn),"inconclusive: 25.9 µM [inhibitor, single point]",–
CN(C)CCCN1c2ccccc2CCc2ccc(Cl)cc21,–,inactive: -26.4%
O=C(NCc1ccccn1)Nc1cc(Cl)ccc1Cl,"inconclusive: 2.91 µM [activator, partial curve]",–
c1ccc2cc3[nH]c(CN4CCCCC4)nc3cc2c1,"inconclusive: 20.6 µM [activator, partial curve]",–
O=[N+]([O-])c1ccc2c(c1)nc1n2CCN(C2CCCCC2)C1,"inconclusive: 16.4 µM [activator, partial curve]",–
COC(=O)c1cccc(Nc2cc(C)nc(-c3ccccc3O)n2)c1,"inconclusive: 18.4 µM [inhibitor, single point]",–
O=C(COC(=O)c1ccc(O)cc1)Nc1ccccc1[N+](=O)[O-],"inconclusive: 18.3 µM [activator, partial curve, poor fit]",–
O=[N+]([O-])c1ccc(Cc2nnc(-c3ccccc3Cl)o2)cc1,"inconclusive: 14.6 µM [activator, partial curve]",–
COc1ccc2oc3cc(C)[n+]([O-])c(-c4ccc(Br)cc4)c3c2c1,active: 20.6 µM,–
COc1ccc(-c2cn[nH]c2N)cc1,"inconclusive: 10.3 µM [inhibitor, partial curve, poor fit]",–

# Some values from above:
# Potency with COC(=O)c1cccc(Nc2cc(C)nc(-c3ccccc3O)n2)c1 is entered as inconclusive: 18.4 µM [inhibitor, single point]
# Potency with COc1ccc(C2/C=C\CN(C(=O)c3ccccc3)CC(=O)N2Cc2cccc(F)c2)cc1 (stereo not drawn) is entered as inconclusive: 25.9 µM [inhibitor, single point]
